Data reported in patent publication US6821751B2, “Hypoxia responsive transcription enhancer element from yeast” (The Brigham and Women's Hospital, Inc., priority 2001, dated 2004).
Where cells or extracts were used, other partners may take part. For some assays here: Negatives hold for the conditions tested. Tags and fusion partners may be left off the protein sequences shown.

Assays:
[1] = molecular target: T1, RAP1p (constitutive EMSA complex B3) (Saccharomyces cerevisiae) (UniProt P11938); assay: EMSA; settings: constitutive complex same as B3 by cold competition; protein in an extract; label: 32P; variant of OLE1 LORE (oligo 10-5'/10-3')
T1 sequence (looked up, limits assumed): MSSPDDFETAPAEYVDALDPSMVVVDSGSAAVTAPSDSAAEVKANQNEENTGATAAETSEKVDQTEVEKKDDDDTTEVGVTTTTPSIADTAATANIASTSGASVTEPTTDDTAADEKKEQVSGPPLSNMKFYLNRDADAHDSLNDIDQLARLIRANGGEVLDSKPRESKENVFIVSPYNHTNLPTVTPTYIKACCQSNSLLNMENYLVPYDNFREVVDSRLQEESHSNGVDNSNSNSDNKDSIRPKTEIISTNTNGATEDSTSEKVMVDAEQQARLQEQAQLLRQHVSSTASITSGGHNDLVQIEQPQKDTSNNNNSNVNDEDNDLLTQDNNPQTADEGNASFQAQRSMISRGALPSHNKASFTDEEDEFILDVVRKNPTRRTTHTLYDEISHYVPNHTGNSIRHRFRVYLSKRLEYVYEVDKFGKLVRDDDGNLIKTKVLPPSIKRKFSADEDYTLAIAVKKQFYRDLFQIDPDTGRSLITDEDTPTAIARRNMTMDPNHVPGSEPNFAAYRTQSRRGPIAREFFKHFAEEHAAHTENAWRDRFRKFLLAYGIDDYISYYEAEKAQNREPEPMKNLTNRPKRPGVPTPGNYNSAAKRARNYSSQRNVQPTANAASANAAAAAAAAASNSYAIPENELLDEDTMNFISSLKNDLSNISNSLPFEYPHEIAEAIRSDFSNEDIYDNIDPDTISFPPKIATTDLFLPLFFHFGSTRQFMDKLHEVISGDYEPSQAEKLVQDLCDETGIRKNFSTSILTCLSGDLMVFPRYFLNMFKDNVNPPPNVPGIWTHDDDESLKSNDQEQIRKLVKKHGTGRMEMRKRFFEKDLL

[2] = molecular target: T1, RAP1p (constitutive EMSA complex B3) (Saccharomyces cerevisiae); assay: competition with a labelled probe; settings: unlabeled OLE1 LORE did not compete B3; protein in an extract; label: 32P

Row | Sequence | binding result [1] | binding result [2]
1 | GAACACCCAACAAACCTTAT (double strand) [LORE T341C] | binds | –
2 | GAACACTCAACAAACCTTAT (double strand) [OLE1 LORE (oligo 10-5'/10-3')] | – | no binding
